Results are given in words; binding and its absence hold for the method and conditions named. A result given as binding can be weak or reduced; the word gives no strength.
Target: cynomolgus monkey OX40-His protein (cynomolgus monkey)
Experiment: ELISA, plate coated with cynomolgus monkey OX40-His protein

binding: binds
B1: PR002067, anti-OX40 heavy-chain antibody R1026P079E12 (antibody, human IgG1, V domains shown)
VH: EVQLLESGGGLVQPGGSLRLSCAASGFTFSSYAMSWVRQAPGKGLEWVSAISGRGGSTFYADSVRGRFTISRDNSKNTLYLQMNSLRAEDTAMYYCVDGTTGTTDVDYWGQGTLVTVSS

From patent US20230303698A1
